SMILES strings stand for the structures.

The experiment relates to eosinophils.

Turning to `Clc1ccc2c(c1)CCc1cccnc1C2=C1CCNCC1` [Desloratadine, desloratadine], the PMA-stimulated superoxide generation entry (10 μM desloratadine, 10 ng/mL PMA) is given as “attenuated”. Besides, the spontaneous superoxide generation entry (desloratadine 0.1 to 10 μM, concentration-dependent) is listed as “attenuated”.

(Values after patent publication US20020061902A1, “Treatment method” (SCHERING CORPORATION, priority 2000, published 2002).)
